Laboratory results taken from PubChem BioAssay AID1259415 (National Center for Advancing Translational Sciences (NCATS), 2018).
Where “and” joins values, the source holds several entries; their conditions need not be identical. Equal values may be shown once. The campaign covered roughly 410,000 compounds. About 18,000 (4.4%) were called active. The shares of active, inactive and inconclusive entries below differ from those in the screen. No stated cut-off is given here; in the data, active means activity change below about -60%; inconclusive means no clear call, values can overlap the other calls; inactive means above about -39%.

Experiment: qHTS Assay for inhibitors of the human cytomegalovirus (HCMV)
Conditions: HFF cells, HCMV-luciferase reporter, 72 h; at 57.5 µM; stronger effect = lower value
Method in brief: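 HFF cells seeded 16 h at 37C, treated with compounds, infected with luciferase-reporter HCMV at MOI 1 PFU/cell; luciferase read at 72 h post infection, normalized to buffer-only and Salinomycin controls.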
On the % scale 0 is the no-effect control and ±100 the full control effect.

SMILES | activity change, negative = inhibition
Cc1ccc(NC(C(=O)c2ccccc2)c2ccccc2)cc1 (stereo unspecified) | active: -99.5%
CCCN1CCc2c(sc(NC(=O)C3CCN(S(=O)(=O)c4cccs4)CC3)c2C(N)=O)C1 | inactive: -14.6%
COc1ccc(OC)c(-c2csc(NC(=O)CSCC(=O)Nc3cc(C)on3)n2)c1 | inactive: 0%
CCOC(=O)c1c(C)[nH]c(C)c1S(=O)(=O)NCCCN1CCOCC1 | inactive: 22.8%
C[C@H](CO)N1C[C@H](C)[C@@H](CN(C)C(=O)NC2CCCCC2)Oc2ccc(NS(=O)(=O)c3ccccc3)cc2C1=O | inconclusive: -47.8%
Cc1ccc(Cn2c(=O)n(Cc3ccco3)c(=O)c3oc4ccccc4c32)cc1 | inactive: 4.45%
FC(F)(F)c1ccc2c(c1)n(Cc1ccccc1)c1[n+]2CCCCC1 | active: -65.8%
CCOc1cc(CNc2ccc(OC)cc2)cc(Br)c1OCC(=O)NC(C)(C)C | inactive: -3.6%
CCN(CCc1ccccc1)c1ccc2c(c1)C1CC2CCN1Cc1ccccc1 (stereo unspecified) | inconclusive: -46.9%
CC(C)C(=O)Nc1nc(-c2ccc([N+](=O)[O-])cc2)cs1 | inconclusive: -58.7%
C[n+]1cccc(C(=O)Nc2ccccc2)c1 | inactive: 32.7%
CON(C)S(=O)(=O)c1cccc(C(=O)N(CC(=O)Nc2ccccc2C(F)(F)F)Cc2ccco2)c1 | inactive: -18%
CCc1ccccc1OCC(=O)OCC(=O)N1CC(=O)Nc2ccccc21 | inconclusive: -56.6%
CCc1nnc(SCC(=O)N(CC)c2ccccc2)c2cc3oc(C)cc3n12 | inactive: 10.4%
CCN1CCc2nc(NC(=O)C(c3ccccc3)c3ccccc3)sc2C1 | inactive: -3.04%
COc1ccc(Nc2nc(C)cc(C)c2C(N)=O)cc1 | inconclusive: -55.2%
Cc1ccccc1OCC(=O)Nc1ccc(S(=O)(=O)N2CCCC2)cc1 | inconclusive: -50.6%
COc1ccc(NC(=O)CN2C(=O)NC3(CCCCC3C)C2=O)cc1S(=O)(=O)N1CCOCC1 (stereo unspecified) | inconclusive: -52.3%
Cc1ccc2c(=O)cc(C(=O)Nc3ccc(S(=O)(=O)N4CCCCCC4)cc3)oc2c1 | inactive: 6.03%
O=C1c2ccccc2[C@@H]2C[C@H]3O[C@H]3CCN12 | inactive: 6.73%
Nc1cccc2cc(-c3ccccc3)oc12 | inactive: 44.8%
Cc1ccc(-n2nnnc2SCC(=O)c2cc(C)n(CC3CCCO3)c2C)cc1 (stereo unspecified) | inactive: -25.7%

Retrieved by compound from above:
SMILES | activity change, negative = inhibition
CCOc1cc(CNc2ccc(OC)cc2)cc(Br)c1OCC(=O)NC(C)(C)C | inactive: -3.6%
C[n+]1cccc(C(=O)Nc2ccccc2)c1 | inactive: 32.7%

The list goes on:

SMILES | activity change, negative = inhibition
COc1cccc(CNC(=O)CCNC(=O)N2CCn3c2nc2ccccc23)c1 | inconclusive: -52.2%
O=C(COc1ccc(C(=O)c2ccc(F)cc2)cc1)NCc1ccc(F)cc1 | active: -77.7%
O=C(CSc1n[nH]c(-c2ccncc2)n1)c1cccc([N+](=O)[O-])c1 | inactive: -27.9%
CCOc1cc(Br)c(C=O)cc1OCC | active: -91.8%
O=[N+]([O-])c1cccc(/C=C/C=N/Nc2nc(N3CCCCC3)nc(N3CCCCC3)n2)c1 | inconclusive: -56.8%
O=C(c1cc(COc2ccc(F)cc2Cl)on1)N1CCC(OCc2cccnc2)CC1 | active: -67.9%
COc1ccc(Cl)cc1C(=O)NCc1nnnn1-c1ccccc1 | inactive: -0.896%
COc1nnc(-c2ccc(N3CCCCC3)c(NC(=O)c3ccccc3Cl)c2)c2ccccc12 | active: -99.3%
O=C(Nc1sc2c(c1C(=O)NCc1ccccc1)CCCC2)c1cc(=O)c2ccccc2o1 | inactive: -12.1%
C=CCn1c(=O)c(C(=O)NCc2ccc(Cl)cc2)c(O)c2ccccc21 | active: -65.9%
N#CC(c1ccccc1O)N1N=C(c2ccccc2)CC1c1ccccc1 (stereo unspecified) | active: -60.7%
COc1ccc(CCNc2cc(C)nc3c(-c4ccc(Cl)cc4)c(C)nn23)cc1OC | inconclusive: -49.1%
COCCCNC(=O)/C(C#N)=C/c1ccc(F)cc1 | inconclusive: -48.4%
CC(=O)N1CCN(c2ccccc2NC(=O)COc2cc(C)cc(C)c2)CC1 | inactive: -10.6%
COc1cc(Cl)c(C)cc1NC(=O)Cn1c2ncccc2c(=O)n1-c1ccccc1 | inactive: 9.48%
O=C(NNc1ccccc1[N+](=O)[O-])Nc1ccc(F)cc1 | inconclusive: -44.7%
CCOC(=O)C(C)Sc1ncc(-c2ccc(Cl)cc2)cn1 (stereo unspecified) | inactive: 15.5%
Cc1nc2ccccc2c2oc(C(=O)NCC3COc4ccccc4O3)cc12 (stereo unspecified) | inconclusive: -45.7%
Cn1nc(CC(=O)Nc2ncc(Br)s2)c2ccccc2c1=O | inconclusive: -57.8%
COC(=O)c1c(NC(=O)CCC(=O)O)sc2c1CCCCC2 | inconclusive: -52.7%
Cc1nnc(SCC(=O)N/N=C/c2cn(-c3ccccc3)nc2-c2ccccc2)n1-c1ccccc1 | inactive: 3.22%
Nn1c(SCc2ccc(C(=O)O)cc2)nnc1-c1ccc(Cl)cc1Cl | inconclusive: -48.1%

Entries from the list above with bromine:
SMILES | activity change, negative = inhibition
CCOc1cc(CNc2ccc(OC)cc2)cc(Br)c1OCC(=O)NC(C)(C)C | inactive: -3.6%
CCOc1cc(Br)c(C=O)cc1OCC | active: -91.8%
Cn1nc(CC(=O)Nc2ncc(Br)s2)c2ccccc2c1=O | inconclusive: -57.8%

The list goes on.

SMILES | activity change, negative = inhibition
COc1ccccc1N(C)S(=O)(=O)c1ccc(C(=O)OCC(=O)N2CCC2)cc1 | inconclusive: -44.5%
COc1cc(C(=O)Nc2nc(-c3ccc(F)cc3)cs2)ccc1OCC(=O)N1CCOCC1 | inconclusive: -48.2%
O=C(COC(=O)c1ccccc1C(=O)c1ccccc1)Nc1cccc([N+](=O)[O-])c1 | inconclusive: -42.3%
CC1CC(C)CN(CC(=O)NC(c2ccccc2)c2ccccc2)C1 (stereo unspecified) | inconclusive: -43.8%
COc1ccccc1/C=C/C=N/NC(=O)c1cc(-c2ccc(C)o2)[nH]n1 | inconclusive: -52.8%
O=C(CSc1n[nH]c(-c2cccnc2)n1)Nc1ccc(Cl)cc1 | inconclusive: -44.3%
CCOc1cc(C(=O)Nc2ccc(S(=O)(=O)N3CCCCC3)cc2)ccc1OCC(=O)N1CCOCC1 | inconclusive: -49%
COc1ccc(OC)c(NC(=O)C2CCCN2S(=O)(=O)c2ccc3c(c2)CC(C)N3C(C)=O)c1 (stereo unspecified) | inconclusive: -52.5%
CCOc1cc(NC(=O)c2ccccn2)c(OCC)cc1NC(=O)CC(C)C | inconclusive: -42.6%
CCCn1cc(S(=O)(=O)c2ccc(OC)cc2)c(=O)c2cc(F)c(N3CCCC(C)C3)cc21 (stereo unspecified) | inactive: -13%
Cc1ccc(NC(=O)Cn2cccc2)cc1C | inconclusive: -50.4%
COc1cccc(CC2(CO)CCCN(CC3=Cc4cc(Cl)ccc4OC3)C2)c1 (stereo unspecified) | inconclusive: -53.3%
COc1ccc(CN2C(=O)C(CC(C)C)Nc3ncnc(N4CCN(c5ccccc5)CC4)c32)cc1 (stereo unspecified) | inactive: -6.26% and inactive: 5.16%
COc1ccc(Cn2ccn(Cc3cccc(Cl)c3)c(=O)c2=O)cc1 | inconclusive: -52.7%
O=C(O)C(Nc1nc(C(F)(F)F)nc2ccccc12)c1ccccc1 (stereo unspecified) | inactive: -1.05%
Cc1onc(-c2ccccc2)c1C(=O)NC(=S)NNC(=O)c1cccnc1 | inactive: 3.76%
O=C(Nc1cccc(C(F)(F)F)c1)c1cccnn1 | inactive: -29.5%
Cc1noc(-c2ccccc2)c1NC(=O)Nc1ccc(Cl)cc1 | inconclusive: -46.8%
CCCS(=O)(=O)NC(=O)C1(C)CCN(C(=O)c2nc(C)oc2C)C1 (stereo unspecified) | inactive: 10.9%
O=C(O)CN1C(=O)/C(=C/c2ccc(SCc3ccccc3)o2)SC1=S | inactive: 10.2%
CC(=O)Nc1cc(C(=O)OCc2cccc([N+](=O)[O-])c2)ccc1C | inconclusive: -43.7%
CC(C)S(=O)(=O)c1csc(C(=O)Nc2ccc(F)cc2)c1N | inactive: 72%

SMILES | activity change, negative = inhibition
Cn1ccc(NC(=O)CCl)n1 | active: -99%
Nc1[nH]c(C(=O)c2ccc(Cl)cc2)c(-c2ccc(Br)cc2)c1C(=O)NCCc1c[nH]c2ccccc12 | inconclusive: -55.1%
Cc1ccc(C(=O)Oc2ccccc2N2C(=O)C3CCC(C)CC3C2=O)cc1 (stereo unspecified) | inconclusive: -40.1%
CC(Sc1nnnn1-c1ccccc1)C(=O)Nc1ccccc1-c1ccccc1 (stereo unspecified) | inconclusive: -49.7%
CC(=O)N1CCCc2cc(S(=O)(=O)N3CCC(C(=O)Nc4c(C)cccc4C)CC3)ccc21 | inactive: -22.1%
CCOC(=O)c1oc2cc(O)cc(C)c2c1C | inconclusive: -53.3%
CC(NCc1ccc(Cl)cc1)C(O)c1ccccc1 (stereo unspecified) | inactive: -6.72%
O=C(c1c(Cl)cccc1Cl)N1CCN(c2ncccn2)CC1 | inconclusive: -46.2%
O=C1CCC(=O)N1CCC(=O)N(C(=O)NC1CCCCC1)C1CCCCC1 | inactive: 14.3%
Cc1ccc(CN2CCN(Cc3cccc(-n4cccn4)c3)CC2CCO)cc1 (stereo unspecified) | inconclusive: -44.6%
CC(C)Cc1nc(SCC(=O)N2CCCC2)c2c(=O)n(C)c(=O)n(C)c2n1 | inconclusive: -55.1%
NC(=O)c1c(NC(=O)CN2CCCC2)sc2c1CCCC2 | inactive: 24.7%
Cc1cccc(NC(=O)CSc2nnc(CNC(=O)c3ccc(S(=O)(=O)N(C)C)cc3)n2-c2cccc(C)c2)c1 | inactive: -14.1%
CCOC(=O)C1CCN(C(=O)c2ccc3c(=O)n4nc(Nc5ccccc5CC)sc4nc3c2)CC1 | inconclusive: -52.3%
Cn1c(=O)c2c(nc(NCCc3ccccc3)n2Cc2ccccc2Br)n(C)c1=O | inactive: 6.41%
C=C(C)C(=O)N1CC2(CC(c3cccc(NC(=O)/C(C)=C\C)c3)=NO2)C[C@H]1C(N)=O (stereo partly specified) | inactive: 14.8%
Cc1onc(-c2ccccc2)c1C(=O)OCCOc1ccccc1F | inconclusive: -44.5%
COc1ccc(-c2nc3ccncc3[nH]2)cc1OC | inactive: 87.5%
O=C(COc1ccccc1Cl)NC(=S)Nc1cccc(NC(=O)c2ccccc2Cl)c1 | inconclusive: -41.9%
O=C(Nc1cccc(C(F)(F)F)c1)c1ccc2sc([C@H]3C[C@H](O)[C@@H](CO)O3)nc2c1 | active: -91.3%
